From patent US20110045002A1 (BRIGHAM AND WOMEN S HOSPITAL, published 2011)
Results are given in words; binding and its absence hold for the method and conditions named. Some binding calls cover weakened binding; strength is not graded here. Where a sequence is shown, tags or fusion partners need not be part of it.

Legend:
[1] = molecular target: T1, Tim-1 on CHO-Tim-1 transfectants (CHO-K1 cells transfected with pEF6 containing murine Tim-1 cDNA) (murine) (UniProt Q5QNS5); assay: summary of the experimental section; flow cytometry with Ig fusion polypeptides
T1 sequence: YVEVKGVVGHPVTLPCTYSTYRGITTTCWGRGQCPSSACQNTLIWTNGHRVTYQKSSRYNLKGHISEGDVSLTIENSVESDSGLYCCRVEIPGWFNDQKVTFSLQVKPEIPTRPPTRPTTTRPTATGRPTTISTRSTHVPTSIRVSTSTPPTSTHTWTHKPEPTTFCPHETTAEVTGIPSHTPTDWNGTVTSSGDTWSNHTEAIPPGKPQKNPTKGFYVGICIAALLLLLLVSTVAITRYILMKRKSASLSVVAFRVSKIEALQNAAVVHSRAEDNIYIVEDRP

[2] = molecular target: T1, Tim-1 on CHO-Tim-1 transfectants (CHO-K1 cells transfected with pEF6 containing murine Tim-1 cDNA) (murine); assay: flow cytometry on CHO and HEK293 transfectants (legend of FIG. 14)
[3] = molecular target: T2, Tim-1 naturally expressed on activated mouse T cells (SJL/J CD3+ T cells; DO11.10 TH1 and TH2 cells) (mouse) (UniProt Q5QNS5); assay: flow cytometry on anti-CD3/anti-CD28 activated CD3+ T cells (FIG. 15A)
T2 sequence: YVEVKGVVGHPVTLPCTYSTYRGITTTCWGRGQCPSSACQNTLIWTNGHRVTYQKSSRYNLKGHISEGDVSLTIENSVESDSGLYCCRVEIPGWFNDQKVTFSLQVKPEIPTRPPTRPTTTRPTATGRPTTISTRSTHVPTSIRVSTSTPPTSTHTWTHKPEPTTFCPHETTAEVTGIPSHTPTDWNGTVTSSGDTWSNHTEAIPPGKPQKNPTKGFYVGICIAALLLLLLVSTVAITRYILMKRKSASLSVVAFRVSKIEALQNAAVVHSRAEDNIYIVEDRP

[4] = molecular target: T1, Tim-1 on CHO-Tim-1 transfectants (CHO-K1 cells transfected with pEF6 containing murine Tim-1 cDNA) (murine); assay: flow cytometry on CHO transfectants
[5] = molecular target: T2, Tim-1 naturally expressed on activated mouse T cells (SJL/J CD3+ T cells; DO11.10 TH1 and TH2 cells) (mouse); assay: flow cytometry on activated, in vitro-polarized DO11.10 TH1 and TH2 cells (FIG. 15C, 15D)
[6] = molecular target: T1, Tim-1 on CHO-Tim-1 transfectants (CHO-K1 cells transfected with pEF6 containing murine Tim-1 cDNA) (murine); assay: flow cytometry, cell surface staining of CHO transfectants (FIG. 14A)
[7] = molecular target: T2, Tim-1 naturally expressed on activated mouse T cells (SJL/J CD3+ T cells; DO11.10 TH1 and TH2 cells) (mouse); assay: flow cytometry on activated TH1 and TH2 cells
[8] = molecular target: T2, Tim-1 naturally expressed on activated mouse T cells (SJL/J CD3+ T cells; DO11.10 TH1 and TH2 cells) (mouse); assay: flow cytometry on activated T cells (legend of FIG. 15)

Measured: binding

B1: Tim-4-Ig (soluble Ig fusion polypeptide: extracellular IgV and mucin domains of Tim-4 fused to a human IgG1 Fc tail) (Fc fusion)
chain: FLGQPVTLPCHYLSWSQSRNSMCWGKGSCPNSKCNAELLRTDGTRIISRKSTKYTLLGKVQFGEVSLTISNTNRGDSGVYCCRIEVPGWFNDVKKNVRLELRRATTTKKPTTTTRPTTTPYVTTTTPELLPTTVMTTSVLPTTTPPQTLATTAFSTAVTTCPSTTPGSFSQETTKGSAITTESETLPASNHSQRSMMTISTDIAVLRPTGSNPGILPSTSQLTTQKTTLTTSESLQKTTKSHQINSRQTIL
notes: Made by Chimerigen; also called tim-4:Ig fusion; not shown: human IgG1 Fc tail
binds: [1] | [2] | [3] | [4] | [5] | [6] | [7] | [8]
